At least one compound was matched to its structure with a doubt left.
Test system: HIV-1 strain LAI
Test: Cellular anti-HIV assay (MTT), wild type strain
Type: cell-based
Settings: MT4 cells, five days, Tables 1-6
Protocol: The compounds of the present invention were examined for anti-viral activity in a cellular assay. […] The cellular assay was performed according to the following procedure.

Compound	pEC50
Cc1cc(Br)cc(C)c1OCC(=O)N[C@@H](Cc1ccccc1)[C@H](O)CN(CC(C)C)S(=O)(=O)c1ccc(-c2csc(Nc3ccccc3)n2)cc1 [Compound 20]	4.0
Cc1cc(Br)cc(C)c1OCC(=O)N[C@@H](Cc1ccccc1)[C@H](O)CN(CC(C)C)S(=O)(=O)c1ccc(-c2csc(Nc3ccc(Cl)c(Cl)c3)n2)cc1 [Compound 22]	4.0

Reference: patent US7763641B2, “Broadspectrum heterocyclic substituted phenyl containing sulfonamide HIV protease inhibitors” (Tibotec Pharmaceuticals Ltd., priority 2001, dated 2010)
